Values of other authors in patent publication US11529304B2, “Method for dyeing keratin material by means of a dyeing agent and an acidic posttreatment agent” (Henkel AG & Co. KGaA, priority 2018, dated 2022).

Settings: 25° C.

**Q.** For `CCN(Cc1cccc(S(=O)(=O)[O-])c1)c1ccc(C(=C2C=CC(=[N+](CC)Cc3cccc(S(=O)(=O)[O-])c3)C=C2)c2ccccc2S(=O)(=O)[O-])cc1.[Na+].[Na+]` [Acid Blue 9], which solubility in water is on record?
**A.** more than 20 % by weight
